This passage reports binding results from publication doi:10.1101/2021.05.25.445488.

By UniProt entry, the sequences of proteins in these tests, tags left out.
UniProt Q3SXY8: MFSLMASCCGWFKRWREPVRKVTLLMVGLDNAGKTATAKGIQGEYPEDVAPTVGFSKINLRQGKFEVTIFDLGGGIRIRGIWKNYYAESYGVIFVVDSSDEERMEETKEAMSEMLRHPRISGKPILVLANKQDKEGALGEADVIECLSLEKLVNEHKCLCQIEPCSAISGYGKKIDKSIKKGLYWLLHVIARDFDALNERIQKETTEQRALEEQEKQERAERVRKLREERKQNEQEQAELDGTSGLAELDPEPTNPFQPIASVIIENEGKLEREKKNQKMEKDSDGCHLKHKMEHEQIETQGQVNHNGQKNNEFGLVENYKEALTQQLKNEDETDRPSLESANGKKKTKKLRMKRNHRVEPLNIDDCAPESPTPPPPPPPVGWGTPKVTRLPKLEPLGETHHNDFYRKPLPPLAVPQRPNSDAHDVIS

Assay [1] concerns the target T1, LAP-tagged TULP3 K389I, RPE-hTERT (human) (UniProt O75386).
T1 sequence: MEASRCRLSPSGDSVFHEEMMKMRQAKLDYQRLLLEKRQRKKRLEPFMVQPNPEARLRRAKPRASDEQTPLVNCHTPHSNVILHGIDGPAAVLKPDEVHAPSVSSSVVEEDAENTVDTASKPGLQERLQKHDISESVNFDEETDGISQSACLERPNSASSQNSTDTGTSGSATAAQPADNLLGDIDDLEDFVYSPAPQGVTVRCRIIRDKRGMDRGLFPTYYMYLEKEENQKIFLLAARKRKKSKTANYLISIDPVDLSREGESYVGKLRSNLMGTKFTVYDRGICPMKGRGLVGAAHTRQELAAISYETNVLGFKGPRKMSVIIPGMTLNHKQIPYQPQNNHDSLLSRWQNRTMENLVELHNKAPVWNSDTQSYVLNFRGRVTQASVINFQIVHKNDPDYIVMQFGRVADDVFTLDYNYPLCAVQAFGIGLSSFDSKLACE
As to the kind of experiment: co-IP.

The target of assay [2] is T2, LAP tagged wild type TULP3, RPE-hTERT (human), O75386.
T2 chain: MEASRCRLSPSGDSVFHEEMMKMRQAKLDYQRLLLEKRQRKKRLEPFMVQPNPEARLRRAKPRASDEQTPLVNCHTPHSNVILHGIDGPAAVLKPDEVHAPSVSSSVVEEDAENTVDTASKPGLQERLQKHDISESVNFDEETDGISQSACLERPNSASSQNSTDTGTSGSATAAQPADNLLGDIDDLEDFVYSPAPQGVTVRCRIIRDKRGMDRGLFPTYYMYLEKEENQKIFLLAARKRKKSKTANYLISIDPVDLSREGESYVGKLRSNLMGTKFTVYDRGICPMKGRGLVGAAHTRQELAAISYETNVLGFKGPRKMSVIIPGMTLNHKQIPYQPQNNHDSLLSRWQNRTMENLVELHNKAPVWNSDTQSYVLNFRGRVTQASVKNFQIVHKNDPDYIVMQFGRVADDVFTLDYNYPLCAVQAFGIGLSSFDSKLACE
As to the kind of experiment: co-IP. Conditions: remark: other sources report otherwise.

Assay [3] concerns the target Myc-ARL13B full length, in vitro translated (human) (UniProt Q3SXY8). As to the kind of experiment: pull-down.

No constants are given. Whether binding was seen depends on the method and setting. Binding seen in cells or lysates may run through a third protein. Some entries that bind do so weakly or less than the wild type. Where a sequence is shown, tags or fusion partners need not be part of it.

B1: IFT139 (protein, UniProt Q7Z4L5 1-1316)
chain: MDSQELKTLINYYCQERYFHHVLLVASEGIKRYGSDPVFRFYHAYGTLMEGKTQEALREFEAIKNKQDVSLCSLLALIYAHKMSPNPDREAILESDARVKEQRKGAGEKALYHAGLFLWHIGRHDKAREYIDRMIKISDGSKQGHVLKAWLDITRGKEPYTKKALKYFEEGLQDGNDTFALLGKAQCLEMRQNYSGALETVNQIIVNFPSFLPAFVKKMKLQLALQDWDQTVETAQRLLLQDSQNVEALRMQALYYVCREGDIEKASTKLENLGNTLDAMEPQNAQLFYNITLAFSRTCGRSQLILQKIQTLLERAFSLNPQQSEFATELGYQMILQGRVKEALKWYKTAMTLDETSVSALVGFIQCQLIEGQLQDADQQLEFLNEIQQSIGKSAELIYLHAVLAMKKNKRQEEVINLLNDVLDTHFSQLEGLPLGIQYFEKLNPDFLLEIVMEYLSFCPMQPASPGQPLCPLLRRCISVLETVVRTVPGLLQTVFLIAKVKYLSGDIEAAFNNLQHCLEHNPSYADAHLLLAQVYLSQEKVKLCSQSLELCLSYDFKVRDYPLYHLIKAQSQKKMGEIADAIKTLHMAMSLPGMKRIGASTKSKDRKTEVDTSHRLSIFLELIDVHRLNGEQHEATKVLQDAIHEFSGTSEEVRVTIANADLALAQGDIERALSILQNVTAEQPYFIEAREKMADIYLKHRKDKMLYITCFREIAERMANPRSFLLLGDAYMNILEPEEAIVAYEQALNQNPKDGTLASKMGKALIKTHNYSMAITYYEAALKTGQKNYLCYDLAELLLKLKWYDKAEKVLQHALAHEPVNELSALMEDGRCQVLLAKVYSKMEKLGDAITALQQARELQARVLKRVQMEQPDAVPAQKHLAAEICAEIAKHSVAQRDYEKAIKFYREALVHCETDNKIMLELARLYLAQDDPDSCLRQCALLLQSDQDNEAATMMMADLMFRKQDYEQAVFHLQQLLERKPDNYMTLSRLIDLLRRCGKLEDVPRFFSMAEKRNSRAKLEPGFQYCKGLYLWYTGEPNDALRHFNKARKDRDWGQNALYNMIEICLNPDNETVGGEVFENLDGDLGNSTEKQESVQLAVRTAEKLLKELKPQTVQGHVQLRIMENYCLMATKQKSNVEQALNTFTEIAASEKEHIPALLGMATAYMILKQTPRARNQLKRIAKMNWNAIDAEEFEKSWLLLADIYIQSAKYDMAEDLLKRCLRHNRSCCKAYEYMGYIMEKEQAYTDAALNYEMAWKYSNRTNPAVGYKLAFNYLKAKRYVDSIDICHQVLEAHPTYPKIRKDILDKARASLRP
As for B1, the binding result in assay [1] was “binds”.

B2: IFT139, Q7Z4L5 1-1316 (protein)
chain: MDSQELKTLINYYCQERYFHHVLLVASEGIKRYGSDPVFRFYHAYGTLMEGKTQEALREFEAIKNKQDVSLCSLLALIYAHKMSPNPDREAILESDARVKEQRKGAGEKALYHAGLFLWHIGRHDKAREYIDRMIKISDGSKQGHVLKAWLDITRGKEPYTKKALKYFEEGLQDGNDTFALLGKAQCLEMRQNYSGALETVNQIIVNFPSFLPAFVKKMKLQLALQDWDQTVETAQRLLLQDSQNVEALRMQALYYVCREGDIEKASTKLENLGNTLDAMEPQNAQLFYNITLAFSRTCGRSQLILQKIQTLLERAFSLNPQQSEFATELGYQMILQGRVKEALKWYKTAMTLDETSVSALVGFIQCQLIEGQLQDADQQLEFLNEIQQSIGKSAELIYLHAVLAMKKNKRQEEVINLLNDVLDTHFSQLEGLPLGIQYFEKLNPDFLLEIVMEYLSFCPMQPASPGQPLCPLLRRCISVLETVVRTVPGLLQTVFLIAKVKYLSGDIEAAFNNLQHCLEHNPSYADAHLLLAQVYLSQEKVKLCSQSLELCLSYDFKVRDYPLYHLIKAQSQKKMGEIADAIKTLHMAMSLPGMKRIGASTKSKDRKTEVDTSHRLSIFLELIDVHRLNGEQHEATKVLQDAIHEFSGTSEEVRVTIANADLALAQGDIERALSILQNVTAEQPYFIEAREKMADIYLKHRKDKMLYITCFREIAERMANPRSFLLLGDAYMNILEPEEAIVAYEQALNQNPKDGTLASKMGKALIKTHNYSMAITYYEAALKTGQKNYLCYDLAELLLKLKWYDKAEKVLQHALAHEPVNELSALMEDGRCQVLLAKVYSKMEKLGDAITALQQARELQARVLKRVQMEQPDAVPAQKHLAAEICAEIAKHSVAQRDYEKAIKFYREALVHCETDNKIMLELARLYLAQDDPDSCLRQCALLLQSDQDNEAATMMMADLMFRKQDYEQAVFHLQQLLERKPDNYMTLSRLIDLLRRCGKLEDVPRFFSMAEKRNSRAKLEPGFQYCKGLYLWYTGEPNDALRHFNKARKDRDWGQNALYNMIEICLNPDNETVGGEVFENLDGDLGNSTEKQESVQLAVRTAEKLLKELKPQTVQGHVQLRIMENYCLMATKQKSNVEQALNTFTEIAASEKEHIPALLGMATAYMILKQTPRARNQLKRIAKMNWNAIDAEEFEKSWLLLADIYIQSAKYDMAEDLLKRCLRHNRSCCKAYEYMGYIMEKEQAYTDAALNYEMAWKYSNRTNPAVGYKLAFNYLKAKRYVDSIDICHQVLEAHPTYPKIRKDILDKARASLRP
For B2, in assay [2], the binding result is recorded as “binds”.

B3: MBP-TULP3 (protein, UniProt O75386-1 1-442)
chain: MEASRCRLSPSGDSVFHEEMMKMRQAKLDYQRLLLEKRQRKKRLEPFMVQPNPEARLRRAKPRASDEQTPLVNCHTPHSNVILHGIDGPAAVLKPDEVHAPSVSSSVVEEDAENTVDTASKPGLQERLQKHDISESVNFDEETDGISQSACLERPNSASSQNSTDTGTSGSATAAQPADNLLGDIDDLEDFVYSPAPQGVTVRCRIIRDKRGMDRGLFPTYYMYLEKEENQKIFLLAARKRKKSKTANYLISIDPVDLSREGESYVGKLRSNLMGTKFTVYDRGICPMKGRGLVGAAHTRQELAAISYETNVLGFKGPRKMSVIIPGMTLNHKQIPYQPQNNHDSLLSRWQNRTMENLVELHNKAPVWNSDTQSYVLNFRGRVTQASVKNFQIVHKNDPDYIVMQFGRVADDVFTLDYNYPLCAVQAFGIGLSSFDSKLACE
As for B3, in assay [3], the binding result is listed as “binds”.

B4: MBP-Tubby (protein, UniProt P50607 1-506)
chain: MTSKPHSDWIPYSVLDDEGRNLRQQKLDRQRALLEQKQKKKRQEPLMVQANADGRPRSRRARQSEEQAPLVESYLSSSGSTSYQVQEADSLASVQLGATRPTAPASAKRTKAAATAGGQGGAARKEKKGKHKGTSGPAALAEDKSEAQGPVQILTVGQSDHAQDAGETAAGGGERPSGQDLRATMQRKGISSSMSFDEDEEDEEENSSSSSQLNSNTRPSSATSRKSVREAASAPSPTAPEQPVDVEVQDLEEFALRPAPQGITIKCRITRDKKGMDRGMYPTYFLHLDREDGKKVFLLAGRKRKKSKTSNYLISVDPTDLSRGGDSYIGKLRSNLMGTKFTVYDNGVNPQKASSSTLESGTLRQELAAVCYETNVLGFKGPRKMSVIVPGMNMVHERVSIRPRNEHETLLARWQNKNTESIIELQNKTPVWNDDTQSYVLNFHGRVTQASVKNFQIIHGNDPDYIVMQFGRVAEDVFTMDYNYPLCALQAFAIALSSFDSKLACE
Take B4: in assay [3], the binding entry is “binds”.
